Among the data in article PMC10740027 are binding values, retold here.

Results are given in words; binding and its absence hold for the method and conditions named. In cells and extracts the contact can be indirect. Some binding calls cover weakened binding; strength is not graded here. For some assays here: Tags and fused reporters may be left off the sequences shown.

Assay [1] deals with T1, interferon-induced protein with tetratricopeptide repeats 3 (IFIT3) (human (endogenous in HCCLM3, Hep-3B, Huh-7)) (UniProt O14879).
T1 sequence: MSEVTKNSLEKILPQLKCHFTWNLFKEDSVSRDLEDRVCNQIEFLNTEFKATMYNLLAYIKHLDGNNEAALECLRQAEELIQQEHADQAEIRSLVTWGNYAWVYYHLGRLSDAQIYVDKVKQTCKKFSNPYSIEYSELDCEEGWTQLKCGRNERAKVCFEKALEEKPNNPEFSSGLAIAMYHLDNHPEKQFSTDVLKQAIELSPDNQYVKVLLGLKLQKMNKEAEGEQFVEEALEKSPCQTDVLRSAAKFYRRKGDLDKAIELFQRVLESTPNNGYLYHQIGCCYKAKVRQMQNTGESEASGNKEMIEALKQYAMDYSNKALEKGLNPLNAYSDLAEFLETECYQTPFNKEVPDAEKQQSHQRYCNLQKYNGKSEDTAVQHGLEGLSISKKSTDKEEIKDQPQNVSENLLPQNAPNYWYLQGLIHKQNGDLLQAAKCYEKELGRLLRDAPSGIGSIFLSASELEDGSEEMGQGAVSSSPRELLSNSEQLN
Description: co-IP; endogenous proteins; lysates of HCCLM3, Hep-3B and Huh-7 cells; protein A/G magnetic beads with anti-UBE2O or anti-IFIT3 antibodies; Western blot.

In assay [2] the target is T2, IFIT3, tagged, expressed from a plasmid (UniProt O14879).
T2 sequence: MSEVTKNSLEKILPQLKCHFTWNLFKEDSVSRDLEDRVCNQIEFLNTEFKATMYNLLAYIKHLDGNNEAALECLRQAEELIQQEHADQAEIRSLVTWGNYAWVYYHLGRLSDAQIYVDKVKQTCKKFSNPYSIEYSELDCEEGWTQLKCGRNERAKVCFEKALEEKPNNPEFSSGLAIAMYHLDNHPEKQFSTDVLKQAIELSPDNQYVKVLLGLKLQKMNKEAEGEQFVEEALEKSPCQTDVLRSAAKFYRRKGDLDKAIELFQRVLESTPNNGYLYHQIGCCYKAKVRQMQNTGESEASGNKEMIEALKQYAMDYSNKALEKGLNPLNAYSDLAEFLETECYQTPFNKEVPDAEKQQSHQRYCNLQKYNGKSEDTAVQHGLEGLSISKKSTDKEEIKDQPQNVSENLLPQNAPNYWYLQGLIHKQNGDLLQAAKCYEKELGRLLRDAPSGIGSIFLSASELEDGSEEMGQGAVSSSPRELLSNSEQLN
Description: co-IP; 293 T cells transfected with plasmids containing different tags, 48 h, MG132 (10 μM) 4-6 h; protein A/G beads and antibodies specific for the corresponding tags; Western blot. A general note: In western blotting, separated proteins are transferred to a membrane and probed.

B1: Ubiquitin Conjugating Enzyme E2O (UBE2O) (enzyme, UniProt Q9C0C9 1-1292)
chain: MADPAAPTPAAPAPAQAPAPAPEAVPAPAAAPVPAPAPASDSASGPSSDSGPEAGSQRLLFSHDLVSGRYRGSVHFGLVRLIHGEDSDSEGEEEGRGSSGCSEAGGAGHEEGRASPLRRGYVRVQWYPEGVKQHVKETKLKLEDRSVVPRDVVRHMRSTDSQCGTVIDVNIDCAVKLIGTNCIIYPVNSKDLQHIWPFMYGDYIAYDCWLGKVYDLKNQIILKLSNGARCSMNTEDGAKLYDVCPHVSDSGLFFDDSYGFYPGQVLIGPAKIFSSVQWLSGVKPVLSTKSKFRVVVEEVQVVELKVTWITKSFCPGGTDSVSPPPSVITQENLGRVKRLGCFDHAQRQLGERCLYVFPAKVEPAKIAWECPEKNCAQGEGSMAKKVKRLLKKQVVRIMSCSPDTQCSRDHSMEDPDKKGESKTKSEAESASPEETPDGSASPVEMQDEGAEEPHEAGEQLPPFLLKEGRDDRLHSAEQDADDEAADDTDDTSSVTSSASSTTSSQSGSGTSRKKSIPLSIKNLKRKHKRKKNKITRDFKPGDRVAVEVVTTMTSADVMWQDGSVECNIRSNDLFPVHHLDNNEFCPGDFVVDKRVQSCPDPAVYGVVQSGDHIGRTCMVKWFKLRPSGDDVELIGEEEDVSVYDIADHPDFRFRTTDIVIRIGNTEDGAPHKEDEPSVGQVARVDVSSKVEVVWADNSKTIILPQHLYNIESEIEESDYDSVEGSTSGASSDEWEDDSDSWETDNGLVEDEHPKIEEPPIPPLEQPVAPEDKGVVISEEAATAAVQGAVAMAAPMAGLMEKAGKDGPPKSFRELKEAIKILESLKNMTVEQLLTGSPTSPTVEPEKPTREKKFLDDIKKLQENLKKTLDNVAIVEEEKMEAVPDVERKEDKPEGQSPVKAEWPSETPVLCQQCGGKPGVTFTSAKGEVFSVLEFAPSNHSFKKIEFQPPEAKKFFSTVRKEMALLATSLPEGIMVKTFEDRMDLFSALIKGPTRTPYEDGLYLFDIQLPNIYPAVPPHFCYLSQCSGRLNPNLYDNGKVCVSLLGTWIGKGTERWTSKSSLLQVLISIQGLILVNEPYYNEAGFDSDRGLQEGYENSRCYNEMALIRVVQSMTQLVRRPPEVFEQEIRQHFSTGGWRLVNRIESWLETHALLEKAQALPNGVPKASSSPEPPAVAELSDSGQQEPEDGGPAPGEASQGSDSEGGAQGLASASRDHTDQTSETAPDASVPPSVKPKKRRKSYRSFLPEKSGYPDIGFPLFPLSKGFIKSIRGVLTQFRAALLEAGMPECTEDK
As to B1, in assay [1], the binding entry is listed as “binds”.

B2: UBE2O, tagged, expressed from a plasmid (enzyme, UniProt Q9C0C9 1-1292)
chain: MADPAAPTPAAPAPAQAPAPAPEAVPAPAAAPVPAPAPASDSASGPSSDSGPEAGSQRLLFSHDLVSGRYRGSVHFGLVRLIHGEDSDSEGEEEGRGSSGCSEAGGAGHEEGRASPLRRGYVRVQWYPEGVKQHVKETKLKLEDRSVVPRDVVRHMRSTDSQCGTVIDVNIDCAVKLIGTNCIIYPVNSKDLQHIWPFMYGDYIAYDCWLGKVYDLKNQIILKLSNGARCSMNTEDGAKLYDVCPHVSDSGLFFDDSYGFYPGQVLIGPAKIFSSVQWLSGVKPVLSTKSKFRVVVEEVQVVELKVTWITKSFCPGGTDSVSPPPSVITQENLGRVKRLGCFDHAQRQLGERCLYVFPAKVEPAKIAWECPEKNCAQGEGSMAKKVKRLLKKQVVRIMSCSPDTQCSRDHSMEDPDKKGESKTKSEAESASPEETPDGSASPVEMQDEGAEEPHEAGEQLPPFLLKEGRDDRLHSAEQDADDEAADDTDDTSSVTSSASSTTSSQSGSGTSRKKSIPLSIKNLKRKHKRKKNKITRDFKPGDRVAVEVVTTMTSADVMWQDGSVECNIRSNDLFPVHHLDNNEFCPGDFVVDKRVQSCPDPAVYGVVQSGDHIGRTCMVKWFKLRPSGDDVELIGEEEDVSVYDIADHPDFRFRTTDIVIRIGNTEDGAPHKEDEPSVGQVARVDVSSKVEVVWADNSKTIILPQHLYNIESEIEESDYDSVEGSTSGASSDEWEDDSDSWETDNGLVEDEHPKIEEPPIPPLEQPVAPEDKGVVISEEAATAAVQGAVAMAAPMAGLMEKAGKDGPPKSFRELKEAIKILESLKNMTVEQLLTGSPTSPTVEPEKPTREKKFLDDIKKLQENLKKTLDNVAIVEEEKMEAVPDVERKEDKPEGQSPVKAEWPSETPVLCQQCGGKPGVTFTSAKGEVFSVLEFAPSNHSFKKIEFQPPEAKKFFSTVRKEMALLATSLPEGIMVKTFEDRMDLFSALIKGPTRTPYEDGLYLFDIQLPNIYPAVPPHFCYLSQCSGRLNPNLYDNGKVCVSLLGTWIGKGTERWTSKSSLLQVLISIQGLILVNEPYYNEAGFDSDRGLQEGYENSRCYNEMALIRVVQSMTQLVRRPPEVFEQEIRQHFSTGGWRLVNRIESWLETHALLEKAQALPNGVPKASSSPEPPAVAELSDSGQQEPEDGGPAPGEASQGSDSEGGAQGLASASRDHTDQTSETAPDASVPPSVKPKKRRKSYRSFLPEKSGYPDIGFPLFPLSKGFIKSIRGVLTQFRAALLEAGMPECTEDK
Take B2: the binding entry in assay [2] is on record as “binds”.
